# According to the supplement of paper PMC9938546:
# Where a name gives a salt, the structure may show the parent alone. This is one part of the list. Plates or batches differ in their baseline, so values are only roughly comparable.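 HCT116-GFP, a KRAS-mutant, microsatellite-unstable human colorectal cancer line, constantly expresses green fluorescent protein; immune cells were from healthy donors. Cancer cell survival was tracked by live-cell imaging of green fluorescence, and activated immune cells by themselves reduced survival to roughly half.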
# System: HCT116-GFP
# Test: HCT116-GFP viability (GFP intensity) relative to untreated HCT116-GFP monoculture control, co-culture with activated PBMCs; higher = less cancer cell killing
# Conditions: culture: co-culture with anti-CD3/IL2 activated PBMCs 1:1; 10 µM; 72 h
row,SMILES,HCT116-GFP viability
1,C[C@H]1C[C@H]2[C@@H]3CCC4=CC(=O)C=C[C@]4(C)[C@@]3(F)[C@@H](O)C[C@]2(C)[C@@]1(O)C(=O)CO [Betamethasone],74.7%
2,CN(C)CCOc1ccc(/C(=C(/CCCl)c2ccccc2)c2ccccc2)cc1 [Toremifene],60.1%
3,CCN1CCN(C(=O)N[C@@H](C(=O)N[C@@H]2C(=O)N3C(C(=O)O)=C(CSc4nnnn4C)CS[C@H]23)c2ccc(O)cc2)C(=O)C1=O [Cefoperazone dihydrate],46.5%
4,C=C1/C(=C\C=C2/CCC[C@]3(C)[C@@H]([C@H](C)/C=C/[C@@H](O)C4CC4)CC[C@@H]23)C[C@@H](O)C[C@@H]1O [Calcipotriene],51.5%
5,Cc1ccc(Cl)c(Nc2ccccc2C(=O)O)c1Cl [Meclofenamic acid sodium salt monohydrate],33.2%
6,O=C(NCCO[N+](=O)[O-])c1cccnc1 [Nicorandil],39.6%
7,COC(=O)Nc1nc2ccc(SC(C)C)cc2[nH]1 [Methiazole],4.23%
8,CC1=Nc2ccc(Cl)cc2S(=O)(=O)N1 [Diazoxide],36.5%
9,CC(C(=O)O)c1ccc(N2Cc3ccccc3C2=O)cc1 (stereo not drawn) [Indoprofen],64.4%
10,CCn1nc(C(=O)O)c(=O)c2cc3c(cc21)OCO3 [Cinoxacin],80.4%
11,Cc1cc(/C=C/c2ccc3cc(N(C)C)ccc3[n+]2C)c(C)n1-c1ccccc1 [Pyrvinium pamoate],54.7%
12,CCCCNc1ccc(C(=O)OCCOCCOCCOCCOCCOCCOCCOCCOCCOC)cc1 [Benzonatate],51.6%
13,COCCOC(=O)C1=C(C)NC(C)=C(C(=O)OC/C=C/c2ccccc2)C1c1cccc([N+](=O)[O-])c1 (stereo not drawn) [Cilnidipine],28.7%
14,O=C(O)/C=C/c1ccc(Cn2ccnc2)cc1 [Ozagrel hydrochloride],47.3%
15,CCCc1nc(C)c2c(=O)nc(-c3cc(S(=O)(=O)N4CCN(CC)CC4)ccc3OCC)[nH]n12 [Vardenafil],40%
16,CCCNC(C)C(=O)Nc1ccccc1C (stereo not drawn) [Prilocaine hydrochloride],37.8%
17,COc1ccc(CN(CCN(C)C)c2ccccn2)cc1 [Pyrilamine maleate],56.3%
18,CC(COc1ccccc1)N(CCCl)Cc1ccccc1 (stereo not drawn) [Phenoxybenzamine hydrochloride],66.8%
19,CCCCC[C@H](O)/C=C/[C@@H]1[C@@H](C/C=C\CCCC(=O)O)[C@@H](O)C[C@H]1O [Dinoprost trometamol],61.8%
20,CC(=O)c1ccc(S(=O)(=O)NC(=O)NC2CCCCC2)cc1 [Acetohexamide],42%
21,CCCN[C@H]1CCc2nc(N)sc2C1 [Pramipexole dihydrochloride],42.4%
22,CCOC(=O)c1ccc(OC(=O)CCCCCNC(=N)N)cc1 [Gabexate mesilate],34.3%
23,Cc1cc(=O)oc2cc(O)ccc12 [Hymecromone],66.2%
24,Cn1c(=O)c2nc[nH]c2n(C)c1=O [Theophylline monohydrate],63.1%
25,c1ccc(C2CN3CCSC3=N2)cc1 (stereo not drawn) [Tetramisole hydrochloride],41.7%

row,SMILES,HCT116-GFP viability
1,C=C1c2cccc(O)c2C(=O)C2=C(O)[C@]3(O)C(=O)C(C(N)=O)=C(O)[C@@H](N(C)C)[C@@H]3[C@@H](O)[C@H]12 [Methacycline hydrochloride],50.7%
2,Cc1scc2c1N(C(=O)CN1CCN(C)CC1)c1ccccc1NC2=O [Telenzepine dihydrochloride],36.3%
3,NCCCC[C@H](N[C@@H](CCc1ccccc1)C(=O)O)C(=O)N1CCC[C@H]1C(=O)O [Lisinopril],35.6%
4,O=C(Nc1cccc2c(=O)cc(-c3nnn[nH]3)oc12)c1ccc(OCCCCc2ccccc2)cc1 [Pranlukast],73.1%
5,CC(C)(C)NC[C@H](O)COc1nsnc1N1CCOCC1 [Timolol maleate salt],71.8%
6,CCOC(=O)[C@H](CCc1ccccc1)N[C@H]1CCc2ccccc2N(CC(=O)O)C1=O [Benazepril hydrochloride],55.7%
7,COC1=C(OC)C(=O)C(CCCCCCCCCCO)=C(C)C1=O [Idebenone],54.3%
8,CCOC(=O)OC(C)OC(=O)[C@@H]1N2C(=O)[C@@H](NC(=O)[C@H](N)c3ccccc3)[C@H]2SC1(C)C (stereo partly drawn) [Bacampicillin hydrochloride],24.5%
9,CC[C@H]1OC(=O)[C@H](C)[C@@H](O[C@H]2C[C@@](C)(OC)[C@@H](O)[C@H](C)O2)[C@H](C)[C@@H](O[C@@H]2O[C@H](C)C[C@H](N(C)C)[C@H]2O)[C@](C)(O)C[C@@H](C)/C(=N\OCOCCOC)[C@H](C)[C@@H](O)[C@]1(C)O [Roxithromycin],71.1%
10,Nc1nc(F)nc2c1ncn2[C@@H]1O[C@H](CO)[C@@H](O)[C@@H]1O [Fludarabine],2.4%
11,Nc1nc(=O)c2nc(CNc3ccc(C(=O)N[C@@H](CCC(=O)O)C(=O)O)cc3)cnc2[nH]1 [Folic acid],39.3%
12,CC(=O)N[C@@H](CC(C)C)C(=O)O [N-Acetyl-L-leucine],73.7%
13,CC(C)C(=O)OCC(=O)[C@@]12O[C@H](C3CCCCC3)O[C@@H]1C[C@H]1[C@@H]3CCC4=CC(=O)C=C[C@]4(C)[C@H]3[C@@H](O)C[C@@]12C [Ciclesonide],54.6%
14,O=C1CN2Cc3c(ccc(Cl)c3Cl)N=C2N1 [Anagrelide],34.3%
15,Nc1nc(=S)c2ncn([C@@H]3O[C@H](CO)[C@@H](O)[C@H]3O)c2[nH]1 [Thioguanosine],14.3%
16,CC(C)NCC(O)COc1ccc(COCCOC(C)C)cc1 (stereo not drawn) [Bisoprolol fumarate],47.7%
17,CO[C@H]1/C=C/O[C@@]2(C)Oc3c(C)c(O)c4c(c3C2=O)C2=NC3(CCN(CC(C)C)CC3)NC2=C(NC(=O)/C(C)=C\C=C\[C@H](C)[C@H](O)[C@@H](C)[C@@H](O)[C@@H](C)[C@H](OC(C)=O)[C@@H]1C)C4=O [Rifabutin],14%
18,O=C(Cn1ccnc1[N+](=O)[O-])NCCO [Etanidazole],77.2%
19,CN(C)CCN(Cc1cccs1)c1ccccn1 [Methapyrilene hydrochloride],44.2%
20,COc1c(O[C@@H]2O[C@H](CO)[C@@H](O)[C@H](O)[C@H]2O)cc2c(c1OC)-c1ccc(SC)c(=O)cc1[C@@H](NC(C)=O)CC2 [Thiocolchicoside],29.1%
21,Clc1ccc(C(Cn2ccnc2)OCc2c(Cl)cccc2Cl)c(Cl)c1 (stereo not drawn) [Isoconazole],41.3%
22,NC(=O)N1c2ccccc2C=Cc2ccccc21 [Carbamazepine],54.4%
23,COc1cc2nc(N3CCN(C(=O)c4ccco4)CC3)nc(N)c2cc1OC [Prazosin hydrochloride],23.2%
24,CCn1cc(C(=O)O)c(=O)c2cnc(N3CCNCC3)nc21 [Pipemidic acid],76.4%
25,COc1nc(C)nc(Cl)c1NC1=NCCN1 [Moxonidine],31.3%

# Three entries from above, as tab-separated lines.
row	SMILES	HCT116-GFP viability
9	CC(C(=O)O)c1ccc(N2Cc3ccccc3C2=O)cc1 (stereo not drawn) [Indoprofen]	64.4%
10	CCn1nc(C(=O)O)c(=O)c2cc3c(cc21)OCO3 [Cinoxacin]	80.4%
11	Cc1cc(/C=C/c2ccc3cc(N(C)C)ccc3[n+]2C)c(C)n1-c1ccccc1 [Pyrvinium pamoate]	54.7%

# The results go on.

row,SMILES,HCT116-GFP viability
1,CC(=O)N[C@@H](CC(=O)N[C@@H](CCC(=O)O)C(=O)O)C(=O)O [Spaglumic acid],48.2%
2,Cc1ccc(S(=O)(=O)NC(=O)NN2CC3CCCC3C2)cc1 (stereo not drawn) [Gliclazide],65.1%
3,C#CCN(C)Cc1ccccc1 [Pargyline hydrochloride],38%
4,CCn1cc(C(=O)O)c(=O)c2ccc(C)nc21 [Nalidixic acid sodium salt],55.6%
5,COc1ccc2cc(CCC(C)=O)ccc2c1 [Nabumetone],66.8%
6,O=C(CCCN1CC=C(n2c(=O)[nH]c3ccccc32)CC1)c1ccc(F)cc1 [Droperidol],32.9%
7,CCN(CC)CCNC(=O)c1cc(S(C)(=O)=O)ccc1OC [Tiapride hydrochloride],34.7%
8,CN1C2CCCC1CC(NC(=O)c1nn(C)c3ccccc13)C2 (stereo not drawn) [Granisetron],55.1%
9,CC(C)N1CCN(c2ccc(OCC3COC(Cn4cncn4)(c4ccc(Cl)cc4Cl)O3)cc2)CC1 (stereo not drawn) [Terconazole],59.4%
10,CN(C)CCOC1=Cc2ccccc2Sc2ccc(Cl)cc21 [Zotepine],69.7%
11,CCN(Cc1ccncc1)C(=O)C(CO)c1ccccc1 (stereo not drawn) [Tropicamide],46.5%
12,O=C(NCCNCC(O)COc1ccc(O)cc1)N1CCOCC1 (stereo not drawn) [Xamoterol hemifumarate],74.2%
13,Cc1ncc([N+](=O)[O-])n1CCO [Metronidazole],44.1%
14,CCN(CC)CC#CCOC(=O)C(O)(c1ccccc1)C1CCCCC1 (stereo not drawn) [Oxybutynin chloride],53.4%
15,OC(CCN1CCCCC1)(c1ccccc1)C1CC2C=CC1C2 (stereo not drawn) [Biperiden hydrochloride],55.8%
16,COc1ccc(C(=O)NCc2cccnc2)cc1C(=O)NCc1cccnc1 [Picotamide monohydrate],45.2%
17,COc1ccc2[nH]cc(CCNC(C)=O)c2c1 [Melatonin],62.5%
18,NC[C@H]1O[C@H](O[C@H]2[C@H](O[C@@H]3O[C@H](CO)[C@@H](O)[C@H]3O)[C@@H](O)[C@H](N)C[C@@H]2N)[C@H](N)[C@@H](O)[C@@H]1O [Ribostamycin sulfate salt],72.1%
19,Cc1ccc(C(=O)c2cc(O)c(O)c([N+](=O)[O-])c2)cc1 [Tolcapone],39.5%
20,CN1CCCCC1CCN1c2ccccc2Sc2ccc([S+](C)[O-])cc21 (stereo not drawn) [Mesoridazine besylate],41.6%
21,NC(=O)N/N=C/c1ccc([N+](=O)[O-])o1 [Nitrofural],42.4%
22,CN(C)CCC[C@@]1(c2ccc(F)cc2)OCc2cc(C#N)ccc21 [Escitalopram oxalate],52.4%
23,CCCC(=O)Nc1ncnc2c1ncn2[C@@H]1O[C@@H]2COP(=O)(O)O[C@H]2[C@H]1OC(=O)CCC [Bucladesine sodium salt],67.9%
